Patent publication EP4695300A2 (dated 2026)
No constants are given. Whether binding was seen depends on the method and setting. Some binding calls cover weakened binding; strength is not graded here. Tags and fused reporters may be left off the sequences shown.

Key:
[1] = molecular target: T1, Prostaglandin F2 Receptor Inhibitor (PTGFRN), expressed by cells (human) (UniProt Q9P2B2); assay: flow binding on cells
T1 sequence (looked up): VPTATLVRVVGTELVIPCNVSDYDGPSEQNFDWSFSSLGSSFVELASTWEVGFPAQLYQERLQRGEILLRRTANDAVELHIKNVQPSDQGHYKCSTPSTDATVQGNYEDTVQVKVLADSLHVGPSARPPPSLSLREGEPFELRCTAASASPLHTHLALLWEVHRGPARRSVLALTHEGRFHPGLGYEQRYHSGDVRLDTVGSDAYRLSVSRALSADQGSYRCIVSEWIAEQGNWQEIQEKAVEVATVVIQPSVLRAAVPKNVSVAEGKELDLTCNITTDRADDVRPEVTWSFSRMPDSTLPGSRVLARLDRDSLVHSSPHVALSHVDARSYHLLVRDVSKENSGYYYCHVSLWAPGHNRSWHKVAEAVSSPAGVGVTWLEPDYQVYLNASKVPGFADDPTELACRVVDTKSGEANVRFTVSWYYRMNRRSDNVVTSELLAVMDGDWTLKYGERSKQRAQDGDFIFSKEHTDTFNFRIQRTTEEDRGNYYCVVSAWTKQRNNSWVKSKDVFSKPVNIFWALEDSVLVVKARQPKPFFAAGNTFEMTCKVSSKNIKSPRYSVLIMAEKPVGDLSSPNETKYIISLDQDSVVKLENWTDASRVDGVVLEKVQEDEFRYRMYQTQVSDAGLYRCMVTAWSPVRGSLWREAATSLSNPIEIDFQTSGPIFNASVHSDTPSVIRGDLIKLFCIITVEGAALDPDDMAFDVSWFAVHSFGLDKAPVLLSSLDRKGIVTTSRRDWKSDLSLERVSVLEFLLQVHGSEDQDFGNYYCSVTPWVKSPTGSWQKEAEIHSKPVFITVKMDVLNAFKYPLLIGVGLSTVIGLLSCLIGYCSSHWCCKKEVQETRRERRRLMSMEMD

[2] = molecular target: T1, Prostaglandin F2 Receptor Inhibitor (PTGFRN), expressed by cells (human); assay: immunofluorescence on cells
[3] = molecular target: T1, Prostaglandin F2 Receptor Inhibitor (PTGFRN), expressed by cells (human); assay: flow cytometry on A431, DAOY and MSTO-211H clones with PTGFRN knocked down or overexpressed
[4] = molecular target: T1, Prostaglandin F2 Receptor Inhibitor (PTGFRN), expressed by cells (human); assay: flow cytometry on cells

Measured: binding

B1: fully human anti-PTGFRN monoclonal antibody 8C7 (antibody, V domains shown)
VH: QLQLQESGPGLVKPSETLSLTCTVSGGSISSSSYYWGWIRQPPGKGLEWIGSIYYGGSTYYNPSLKSRVTISVDTSTNQFSLKLNSVTAADTAVYYCARQGLGSFDCWGQGTLVTVSS
VL: DVVMTQSPLSLPVTLGQPASISCRSSQSLVHSDGNTYLNWFQQRPGQSPRRLIYKVSNRDSGVPDRFSGSGSGTDFTLKISGVEAEDVGIYYCMQGTHWPPLTFGGGTKVEIK
notes: also called anti-PTGFRN antibody 8C7; internalizing anti-PTGFRN 8C7
binds: all assays above
